Patent publication US20260022160A1 (AFFYXELL THERAPEUTICS, published 2026)
No constants are given. Whether binding was seen depends on the method and setting. Some binding calls cover weakened binding; strength is not graded here.

The chains behind the UniProt entries cited, without tags or fusion partners. Where a name states a change or a piece, a line headed by the entry shows the natural chain unless it says otherwise.
UniProt P02768: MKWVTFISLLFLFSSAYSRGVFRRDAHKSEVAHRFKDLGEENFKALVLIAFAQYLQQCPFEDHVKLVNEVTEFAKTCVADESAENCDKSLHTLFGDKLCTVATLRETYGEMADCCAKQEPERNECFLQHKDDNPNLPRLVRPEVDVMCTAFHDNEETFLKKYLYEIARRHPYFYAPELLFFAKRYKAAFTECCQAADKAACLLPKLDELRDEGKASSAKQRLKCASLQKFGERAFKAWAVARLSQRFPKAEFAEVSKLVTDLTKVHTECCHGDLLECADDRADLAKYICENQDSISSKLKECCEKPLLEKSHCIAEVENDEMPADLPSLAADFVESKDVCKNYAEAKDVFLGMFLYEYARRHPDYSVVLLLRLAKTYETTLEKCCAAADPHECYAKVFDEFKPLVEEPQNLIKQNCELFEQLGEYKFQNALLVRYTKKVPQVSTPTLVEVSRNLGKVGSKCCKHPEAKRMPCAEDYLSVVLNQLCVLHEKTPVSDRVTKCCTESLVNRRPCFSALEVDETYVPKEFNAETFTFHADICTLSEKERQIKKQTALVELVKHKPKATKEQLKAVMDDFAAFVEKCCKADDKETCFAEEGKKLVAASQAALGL

Legend:
[1] = target: T1, human CD40L (human, UniProt P29965 113-261, limits assumed); test: competitive ELISA: hCD40L (1 nM) premixed with the binder and added to plate-coated rhCD40 Fc; bound hCD40L detected with biotinylated anti-hCD40L polyclonal antibody
T1 sequence (looked up): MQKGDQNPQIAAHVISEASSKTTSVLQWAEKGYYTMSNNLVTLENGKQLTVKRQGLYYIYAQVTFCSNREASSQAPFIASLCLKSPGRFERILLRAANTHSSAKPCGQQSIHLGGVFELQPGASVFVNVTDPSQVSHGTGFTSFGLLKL
Description: To evaluate the avidity of the different formats, a CD40L competitive ELISA was performed. Briefly, the plates were coated with rhCD40 Fc at 1 μg/ml and incubated overnight at 4° C. The plates were washed twice with 150 μl of washing buffer (PBS, Tween 20 0.1%) with a plate washer and saturated with Casein 5% (Sigma) in PBS for 90 minutes at room temperature (25±1° C.). […] The resulting solution was then mixed and added to the plates. The plates were washed 3 times as described previously. […] The plates were incubated for 90 minutes at room temperature (25±1° C.). The plates were then washed. PolyHRP-Streptavidin was then diluted in dilution buffer and added to the plates. The plates were incubated an additional 90 minutes at room temperature (25±1° C.). Plates were washed 3 times as described previously and the substrate (TMB, Pierce Thermo-Scientific) was added in the plate for 10 minutes. The reaction was stopped using an acidic solution and the plates were read at 450-630 nm and the resulting percent inhibition was calculated.

[2] = target: T1, human CD40L; test: CD40L competitive ELISA against plate-coated rhCD40 Fc
[3] = target: T1, human CD40L; test: ELISA on plate-coated hCD40L, anti-cystatin detection, without or with HSA
[4] = target: T1, human CD40L; test: hCD40L/HSA bridging ELISAs
[5] = target: T2, human serum albumin (human, UniProt P02768 25-609); test: hCD40L/HSA bridging ELISA: capture on hCD40L, HSA 10 uM, anti-HSA detection
T2 construct: also called HSA

[6] = target: T2, human serum albumin; test: bridging ELISA: binder captured on plate-coated hCD40L, HSA 10 uM, bound HSA detected with anti-HSA antibody
Description: After saturation with 5% casein/PBS buffer, the plates were washed and a dilution of Stefin A protein variant or controls was incubated with HSA at a final concentration of 10 μM for 90 minutes. Plates were then washed, and a […], anti-HSA (HRP-conjugated) (Abcam), was added for 90 minutes. After a last washing step, TMB was added for the development of the experiment and the plates were read at 450 nm. The EC50 was then calculated using the interpolated non-linear four-parameters standard curve (FIG. 12C).

[7] = target: T2, human serum albumin; test: hCD40L/HSA bridging ELISAs

Measured: binding

B1: clone-230 XT75 (trimer with a rigid linker and an HSA binding stefin A protein variant) (designed binder)
chain: IPGGLSEAKPATPEIQEIVDKVKPQLEEKTGETYGKLEAVQYKTQVVHYYVHYNDQGTNYYIKVRAGDNKYMHLKVFKSLWGENLFAKWEDLVLTGYQVDKNKDDELTGFAEAAAKEAAAKEAAAKEAAAKEAAAKEAAAKMIPGGLSEAKPATPEIQEIVDKVKPQLEEKTGETYGKLEAVQYKTQVVHYYVHYNDQGTNYYIKVRAGDNKYMHLKVFKSLWGENLFAKWEDLVLTGYQVDKNKDDELTGFAEAAAKEAAAKEAAAKEAAAKEAAAKEAAAKMIPGGLSEAKPATPEIQEIVDKVKPQLEEKTGETYGKLEAVQYKTQVVHYYVHYNDQGTNYYIKVRAGDNKYMHLKVFKSLWGENLFAKWEDLVLTGYQVDKNKDDELTGFAEAAAKEAAAKEAAAKEAAAKEAAAKEAAAKMIPRGLSEAKPATPEIQEIVDKVKPQLEEKTGETYGKLEAVQYKTQVLANFFQRRWPGSTNYYIKVRAGDNKYMHLKVFNGPWKFRNTDRGADRVLTGYQVDKNKDDELTGF
notes: also called AFX01-230 XT75
binds: [1] | [2] | [3] | [4]

B2: clone-230 XT76 (tetramer with a rigid linker and an HSA binding stefin A protein variant) (designed binder)
chain: IPGGLSEAKPATPEIQEIVDKVKPQLEEKTGETYGKLEAVQYKTQVVHYYVHYNDQGTNYYIKVRAGDNKYMHLKVFKSLWGENLFAKWEDLVLTGYQVDKNKDDELTGFAEAAAKEAAAKEAAAKEAAAKEAAAKEAAAKMIPGGLSEAKPATPEIQEIVDKVKPQLEEKTGETYGKLEAVQYKTQVVHYYVHYNDQGTNYYIKVRAGDNKYMHLKVFKSLWGENLFAKWEDLVLTGYQVDKNKDDELTGFAEAAAKEAAAKEAAAKEAAAKEAAAKEAAAKMIPGGLSEAKPATPEIQEIVDKVKPQLEEKTGETYGKLEAVQYKTQVVHYYVHYNDQGTNYYIKVRAGDNKYMHLKVFKSLWGENLFAKWEDLVLTGYQVDKNKDDELTGFAEAAAKEAAAKEAAAKEAAAKEAAAKEAAAKMIPGGLSEAKPATPEIQEIVDKVKPQLEEKTGETYGKLEAVQYKTQVVHYYVHYNDQGTNYYIKVRAGDNKYMHLKVFKSLWGENLFAKWEDLVLTGYQVDKNKDDELTGFAEAAAKEAAAKEAAAKEAAAKEAAAKEAAAKMIPRGLSEAKPATPEIQEIVDKVKPQLEEKTGETYGKLEAVQYKTQVLANFFQRRWPGSTNYYIKVRAGDNKYMHLKVFNGPWKFRNTDRGADRVLTGYQVDKNKDDELTGF
binds: all assays above
